Data taken from US9605041B2, “Regulatory proteins and inhibitors” (INTRA-CELLULAR THERAPIES, INC., priority 2009, dated 2017).
pIC50: −log10 of the molar value.

Target: PDGF receptor
Assay: Kinase profiling (Millipore standard assay), PDGF receptor
Settings: read-out: IC50 against PDGF receptor; ATP=45 μM

Compound: Cc1ccc(NC(=O)c2ccc(CN3CCN(C)CC3)cc2)cc1Nc1nccc(-c2cccnc2)n1 [imatinib, reference compound]
- pIC50: 5.32
